Laboratory results: article doi:10.1101/2025.08.22.671827
No constants are given. Whether binding was seen depends on the method and setting. Binding seen in cells or lysates may run through a third protein. Binding can be weak; no strength is given.

Chains of the proteins cited; added tags and fusions are not shown. Lines headed by an entry give the natural chain unless they say otherwise; changes in a name come on top.
UniProt P39524: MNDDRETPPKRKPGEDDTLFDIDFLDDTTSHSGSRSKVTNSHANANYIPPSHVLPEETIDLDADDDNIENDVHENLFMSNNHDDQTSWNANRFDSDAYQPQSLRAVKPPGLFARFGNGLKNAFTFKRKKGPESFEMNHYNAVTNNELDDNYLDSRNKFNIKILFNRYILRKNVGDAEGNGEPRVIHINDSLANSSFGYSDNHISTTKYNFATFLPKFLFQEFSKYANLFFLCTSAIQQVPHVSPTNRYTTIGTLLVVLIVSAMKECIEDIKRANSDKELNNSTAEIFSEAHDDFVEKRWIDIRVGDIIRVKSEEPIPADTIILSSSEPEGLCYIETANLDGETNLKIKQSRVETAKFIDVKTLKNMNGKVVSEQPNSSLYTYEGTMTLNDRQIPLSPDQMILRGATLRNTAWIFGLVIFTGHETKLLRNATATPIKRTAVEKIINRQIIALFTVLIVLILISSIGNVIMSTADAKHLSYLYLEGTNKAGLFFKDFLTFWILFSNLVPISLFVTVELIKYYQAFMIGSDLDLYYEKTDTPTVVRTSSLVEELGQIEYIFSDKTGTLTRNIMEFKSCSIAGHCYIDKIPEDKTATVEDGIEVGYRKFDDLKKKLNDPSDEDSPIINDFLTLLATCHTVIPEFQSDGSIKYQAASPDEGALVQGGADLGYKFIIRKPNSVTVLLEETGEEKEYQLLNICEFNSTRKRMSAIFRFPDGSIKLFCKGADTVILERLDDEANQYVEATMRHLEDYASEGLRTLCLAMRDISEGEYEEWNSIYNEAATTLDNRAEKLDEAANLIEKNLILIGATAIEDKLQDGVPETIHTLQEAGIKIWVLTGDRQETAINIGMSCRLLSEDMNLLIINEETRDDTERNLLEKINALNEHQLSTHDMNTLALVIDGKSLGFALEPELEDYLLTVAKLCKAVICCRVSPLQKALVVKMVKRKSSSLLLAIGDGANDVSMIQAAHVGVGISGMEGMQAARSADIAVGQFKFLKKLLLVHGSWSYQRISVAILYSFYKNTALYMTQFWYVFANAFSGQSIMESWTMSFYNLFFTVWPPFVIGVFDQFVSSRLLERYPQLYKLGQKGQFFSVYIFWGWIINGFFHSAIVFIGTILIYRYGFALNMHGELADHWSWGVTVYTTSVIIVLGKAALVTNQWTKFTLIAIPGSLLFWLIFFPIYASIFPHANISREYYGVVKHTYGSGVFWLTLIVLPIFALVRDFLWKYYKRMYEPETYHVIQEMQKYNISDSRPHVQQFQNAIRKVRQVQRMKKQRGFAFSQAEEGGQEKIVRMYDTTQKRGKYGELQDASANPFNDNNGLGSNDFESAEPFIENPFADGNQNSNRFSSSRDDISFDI

Tests used:
cryo-EM structure = compound: ΔNC Drs2 (residues 104-1247) (yeast) (UniProt P39524); assay: cryo-EM structure
pull-down + SEC [1] = substrate: ΔNC Drs2^E342Q (yeast) (UniProt P39524); assay: pull-down + SEC
pull-down + SEC [2] = substrate: ΔNC Drs2 (residues 104-1247) (yeast) (UniProt P39524); assay: pull-down + SEC

binding (cryo-EM structure): binds
binding (pull-down + SEC [1]): binds
binding (pull-down + SEC [2]): binds
B1: Cdc50 (protein, UniProt P25656 1-391)
chain: MVSLFKRGKAPPLTKEGPTSKKPPNTAFRQQRLKAWQPILSPQSVLPLLIFVACIFTPIGIGLIVSATKVQDLTIDYSHCDTKASTTAFEDIPKKYIKYHFKSKVENKPQWRLTENENGEQSCELQFEIPNDIKKSIFIYYKITNFYQNHRRYVQSFDTKQILGEPIKKDDLDTSCSPIRSREDKIIYPCGLIANSMFNDTFSQVLSGIDDTEDYNLTNKHISWSIDRHRFKTTKYNASDIVPPPNWMKKYPDGYTDENLPDIHTWEEFQVWMRTAAFPKFYKLTLKNESASLPKGKYQMNIELNYPISLFGGTKSFVLTTNGAIGGRNMSLGVLYLIVAGLCALFGIIFLVKLIFQPRAMGDHTYLNFDDEENEDYEDVHAENTTLREIL
